PubChem BioAssay AID651640 (Broad Institute, 2012)
Values joined by “and” are separate entries in the source; they are usually repeats but may differ in a detail not shown here. Equal entries are not always repeated. The whole screen tested about 350,000 compounds, of which about 6,000 (1.7%) were called active. The inconclusive results got no clear call from the source; some entries with a clear call stand among them for comparison. Cut-off read from the data, not from the text of the source: active = CPE inhibition above about 20% (passing the limit was not always enough); inconclusive = no clear call, values can overlap the other calls; tested in BHK-21 cells.

Assay: protection of cells from dengue 2 killing – plate reader, single concentration, primary screen (AID 651640);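 note: 0% = median of neutral control wells and 100% = median of positive control wells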
Conditions: DENV2-infected cells, cytopathic effect rescue, at 9.99 µM, stronger effect = higher value

Compound | CPE inhibition
CC(=O)n1cc([C@@H]2C=C(C(=O)NCc3ccccc3)O[C@H](OCc3ccc(CO)cc3)C2)c2ccccc21 | active: 44.6% and inconclusive: 29.9%
C/C=C1\COC(C(=O)NCc2ccccc2)(C(F)(F)F)C=C1C=C(C)C (configuration not stated) | inactive: -12.2%
O=C(N/N=C/c1ccccc1Br)c1cccc(S(=O)(=O)N2CCOCC2)c1 | inconclusive: 28.2%
O=C(NC1CC1)C1=C[C@@H](c2ccccc2)C[C@@H](OCc2ccc(CO)cc2)O1 | inconclusive: 28.5%
Cc1cc(CSC(=N)N)c(CSC(=N)N)cc1C | inconclusive: 22.5%
O=C(C1CCCCC1)N1CC(=O)N2[C@H](CO)[C@H](c3ccc(Br)cc3)[C@H]2C1 | inactive: -9.75%
C=CCC[C@@H](Cc1ccc(F)cc1)C(=O)OC[C@H](Cc1c[nH]c2ccccc12)NC(=O)[C@@H](CC=C)CC(=O)N[C@H](CO)Cc1ccccc1 | inconclusive: 47%
c1ccc2c(Nc3ccc4c(c3)OCCO4)c3c(nc2c1)CCC3 | inconclusive: 26.7%
O=C(COC(=O)Cc1ccc(Cl)cc1)NCc1ccc(F)cc1 | inconclusive: 38.9%
Cc1ccccc1OC1(C)CCN(Cc2ccc(-c3ccccn3)cc2)C1 (configuration not stated) | inactive: -5.98%
O=C(N[C@@H]1CC[C@@H](CCNC(=O)C2CCC2)O[C@@H]1CO)c1ccncc1 | inactive: 0.55%
Cc1c(OCc2ccccc2)c(=O)ccn1Cc1ccc(F)cc1 | inconclusive: 40.4%
O=C(CN1C(=O)C2C3C=CC(C3)C2C1=O)OCC(=O)c1ccc(Cl)c([N+](=O)[O-])c1 (configuration not stated) | inconclusive: 61.9%
CN(C)C(=O)C[C@H]1CC[C@H]2[C@@H](COC[C@H](O)CN2CC2CCCC2)O1 | active: 48%
O=C(NC(CO)C(O)c1ccc([N+](=O)[O-])cc1)C(Cl)Cl (configuration not stated) | inconclusive: 41.4%
COc1ccc(CCc2nc(-c3cccs3)no2)cc1 | inconclusive: 21.6%
COC(=O)CN(C(=S)Nc1ccccc1)C1CC(=O)N(c2ccc(OC)cc2)C1=O (configuration not stated) | inactive: -6.63%
COc1ccc(CNC(=O)/C=C/[C@H]2O[C@@H](n3cnc4c(NC(=O)c5ccccc5)ncnc43)[C@H](O)[C@@H]2O)cc1 | inconclusive: 52%
FC(F)(F)c1cc(CCN2CCNC[C@H]2Cc2cccc3ccccc23)cc(C(F)(F)F)c1 | active: 83.9%
CCn1c(C)nnc1SCC(=O)Nc1ccc2c(c1)OCCO2 | inconclusive: 33.4%
Cc1cc[n+](CC(=O)c2cc3ccccc3oc2=O)cc1 | inconclusive: 21.3%
CCOc1ccccc1NC(=O)N1CCCC1C(=O)NCc1ccco1 (configuration not stated) | inconclusive: 29.6%
C[C@H](CO)N1C[C@H](C)[C@@H](CN(C)Cc2ccc(C(F)(F)F)cc2)Oc2c(NC(=O)Nc3ccc(F)cc3)cccc2C1=O | active: 68.9%
Cc1noc(C)c1NC(=O)Nc1ccc2c(c1)C(=O)N([C@@H](C)CO)C[C@H](C)[C@@H](CN(C)C(=O)CCCN(C)C)OCCCC[C@@H](C)O2 | active: 86.3%

Grouped by structure: the entries above containing nitrogen in an aromatic ring
Compound | CPE inhibition
CC(=O)n1cc([C@@H]2C=C(C(=O)NCc3ccccc3)O[C@H](OCc3ccc(CO)cc3)C2)c2ccccc21 | active: 44.6% and inconclusive: 29.9%
C=CCC[C@@H](Cc1ccc(F)cc1)C(=O)OC[C@H](Cc1c[nH]c2ccccc12)NC(=O)[C@@H](CC=C)CC(=O)N[C@H](CO)Cc1ccccc1 | inconclusive: 47%
c1ccc2c(Nc3ccc4c(c3)OCCO4)c3c(nc2c1)CCC3 | inconclusive: 26.7%
Cc1ccccc1OC1(C)CCN(Cc2ccc(-c3ccccn3)cc2)C1 (configuration not stated) | inactive: -5.98%
O=C(N[C@@H]1CC[C@@H](CCNC(=O)C2CCC2)O[C@@H]1CO)c1ccncc1 | inactive: 0.55%
Cc1c(OCc2ccccc2)c(=O)ccn1Cc1ccc(F)cc1 | inconclusive: 40.4%
COc1ccc(CCc2nc(-c3cccs3)no2)cc1 | inconclusive: 21.6%
COc1ccc(CNC(=O)/C=C/[C@H]2O[C@@H](n3cnc4c(NC(=O)c5ccccc5)ncnc43)[C@H](O)[C@@H]2O)cc1 | inconclusive: 52%
CCn1c(C)nnc1SCC(=O)Nc1ccc2c(c1)OCCO2 | inconclusive: 33.4%
Cc1cc[n+](CC(=O)c2cc3ccccc3oc2=O)cc1 | inconclusive: 21.3%
Cc1noc(C)c1NC(=O)Nc1ccc2c(c1)C(=O)N([C@@H](C)CO)C[C@H](C)[C@@H](CN(C)C(=O)CCCN(C)C)OCCCC[C@@H](C)O2 | active: 86.3%

For convenience, part of the list above.
Compound | CPE inhibition
CCn1c(C)nnc1SCC(=O)Nc1ccc2c(c1)OCCO2 | inconclusive: 33.4%
Cc1cc[n+](CC(=O)c2cc3ccccc3oc2=O)cc1 | inconclusive: 21.3%

Next part

Compound | CPE inhibition
CCCOC1CCCN(C(=O)c2cc(COc3ccc(-n4cncn4)cc3)on2)C1 (configuration not stated) | inconclusive: 31.1%
O=S(=O)(N[C@@H]1CC[C@@H](CCn2cc(C3(O)CCCC3)nn2)O[C@@H]1CO)c1ccc(F)cc1 | inactive: -11.4%
C/C=C/c1ccc([C@H]2[C@@H](CO)N(C(=O)NCCC)[C@@H]2CNC(=O)C2CCC2)cc1 | inactive: -11.4%
C[C@@H]1CN([C@H](C)CO)C(=O)Cc2cc(NC(=O)Nc3ccc(F)cc3)ccc2O[C@@H]1CN(C)CC1CC1 | inactive: 7.82%
C[C@@H]1CN([C@H](C)CO)C(=O)c2cccc(NC(=O)c3ccncc3)c2O[C@@H]1CN(C)Cc1ccc(C(=O)Nc2ccccc2N)cc1 | inactive: -1.86%
CC(C)C(C(=O)N1CCN(Cc2ccccc2)CC1)c1ccccc1 (configuration not stated) | inconclusive: 38.8%
O=C(C[C@@H]1CC[C@H](NC(=O)Nc2ccc3c(c2)OCO3)[C@H](CO)O1)NCc1ccccc1 | inconclusive: 20.4%
C[C@@H]1CN([C@@H](C)CO)C(=O)c2cccc(NC(=O)c3ccc(-c4nccs4)cc3)c2O[C@@H]1CN(C)S(C)(=O)=O | active: 24%
COc1ccc(S(=O)(=O)Nc2ccc3c(c2)CC(=O)N([C@@H](C)CO)C[C@@H](C)[C@@H](CN(C)C(=O)NC(C)C)O3)cc1 | inactive: 7.03%
CC1(C)CC(=O)C=C(c2ccc3ncccc3c2)C1 | inconclusive: 23.7%
CCC(=O)Nc1ccc2c(c1)C(=O)N(C)C[C@@H](OC)[C@H](C)CN(C(=O)COC)[C@@H](C)CO2 | active: 21.1%
CC1Cc2nc(SCC(=O)Nc3nccs3)n(C)c(=O)c2S1 (configuration not stated) | inconclusive: 57%
CC(C)(C)c1ccc(C(=O)NC(=S)NCc2ccco2)cc1 | inactive: 3.54%
O=S(=O)(N[C@@H]1CC[C@H](CCn2cc(C3(O)CCCC3)nn2)O[C@H]1CO)c1ccccc1 | inactive: -4.29%
C[C@H]1CCCCO[C@H](CN(C)Cc2ccc(Cl)c(Cl)c2)[C@@H](C)CN([C@@H](C)CO)C(=O)c2cc(NS(=O)(=O)c3ccc(F)cc3)ccc2O1 | active: 22.2%
COc1ccc(C(=O)N/C(=C\c2ccccc2)C(=O)N2CCOCC2)cc1 | inconclusive: 48.6%
CCOc1ccc(OCCC(=O)OCC(=O)Nc2ccc(Cl)cn2)cc1 | inconclusive: 29%
CC(C)(NC(=O)c1ccccc1)c1nc2ccccc2s1 | active: 109%
C[C@@H]1CN([C@H](C)CO)C(=O)CCCn2cc(nn2)CO[C@@H]1CN(C)C(=O)Nc1ccc(-c2cccs2)cc1 | inconclusive: 23.9%
COc1ccc(CN2CCN(CCCc3ccccc3)C(CCO)C2)c(O)c1 (configuration not stated) | inconclusive: 22.3%
Nc1cccc(-c2csc(-n3ncc(C(=O)O)c3C(F)(F)F)n2)c1 | inactive: 11.2%
CCN(c1ccc(OC)cc1)S(=O)(=O)c1csc(C(=O)N2CCCC2)c1 | inconclusive: 31.7%
CO[C@@H]1CN(C)C(=O)c2ccc(NC(C)=O)cc2OC[C@H](C)N(CCc2ccccc2)C[C@H]1C | inconclusive: 26.3%
